Not every detail of the peptide structures is certain; ends, links or a residue may be inferred. No end group written: not given here.
Legend:
A549 epithelial cells = experiment: Human Operon arrays (PRHU04-S1) of A549 cells treated with peptide alone (Tables 31-37, 53); settings: A549 cells, peptide 50 μg/ml, 4 h
[1] = assay type: cell-based; settings: overnight, 96-well plate; for MIC, P. aerug.: Pseudomonas aeruginosa
[2] = tested on: A549 human epithelial cell line; experiment: Polynucleotide array (Human Operon) of A549 cells incubated with E. coli O111:B4 LPS with or without peptide; assay type: cell-based; settings: 50 μg/ml, 4 h
Procedure: The A549 human epithelial cell line was maintained in DMEM (Gibco) supplemented with 10% fetal bovine serum (FBS, Medicorp). […] Total RNA was isolated using RNAqueous (Ambion, Austin, Tex.). […] DNA contamination was removed with DNA-free kit, Ambion).
A “homemade” program was used to remove background. The program calculates the bottom 10% intensity for each subgrid and subtracts this for each grid.
Peptide (50 μg/ml) and LPS (0.1 μg/ml) or LPS alone was incubated with the A549 cells for 4 h and the RNA was isolated. Five μg total RNA was used to make Cy3/Cy5 labeled cDNA probes and hybridized onto Human Operon arrays (PRHU04). The intensity of unstimulated cells is shown in the third column of Table 1. The “Ratio: LPS/control” column refers to the intensity of polynucleotide expression in LPS simulated cells divided by in the intensity of unstimulated cells. The “Ratio: LPS+ID 27/control” column refers to the intensity of polynucleotide expression in cells stimulated with LPS and peptide divided by unstimulated cells.
Peptide and LPS or LPS alone was incubated with the A549 cells for 4 h and the RNA was isolated. 5 μg total RNA was used to make Cy3/Cy5 labeled cDNA probes and hybridized onto Human Operon arrays (PRHU04). The intensity of unstimulated cells is shown in the third column of Table 2. The “Ratio: LPS/control” column refers to the intensity of polynucleotide expression in LPS-simulated cells divided by in the intensity of unstimulated cells. The other columns refer to the intensity of polynucleotide expression in cells stimulated with LPS and peptide divided by unstimulated cells.

## KCKLFKKMLMLALKKVLTTGLPALKLTK [ID 40]
A549 epithelial cells; Table 36
  AB014615 fibroblast growth factor 8, expression Ratio ID#:ctrl: 5.4
  AB015349 unknown, expression Ratio ID#:ctrl: 10.5
  AB017016 brain-specific protein p25 alpha, expression Ratio ID#:ctrl: 6.0
  AB022847 unknown, expression Ratio ID#:ctrl: 2.1
  AB023155 KIAA0938 protein, expression Ratio ID#:ctrl: 2.7
  AB033080 cell cycle progression 8 protein, expression Ratio ID#:ctrl: 4.4
  AB037744 unknown, expression Ratio ID#:ctrl: 2.6
  AC005162 probable carboxypeptidase precursor, expression Ratio ID#:ctrl: 11.9
  AF025840 polymerase epsilon 2, expression Ratio ID#:ctrl: 3.4
  AF034970 docking protein 2, expression Ratio ID#:ctrl: 3.3
  AF039400 chloride channel_calcium activated_family member 1, expression Ratio ID#:ctrl: 8.4
  AF045941 sciellin, expression Ratio ID#:ctrl: 6.8
  AF049703 E74-like factor 5, expression Ratio ID#:ctrl: 5.1
  AF053712 TNF superfamily_member 11, expression Ratio ID#:ctrl: 11.3
  AF061836 Ras association domain family 1, expression Ratio ID#:ctrl: 3.2
  AF083898 neuro-oncological ventral antigen 2, expression Ratio ID#:ctrl: 18.7
  AF093670 peroxisomal biogenesis factor, expression Ratio ID#:ctrl: 4.0
  AF105424 myosin heavy polypeptide-like, expression Ratio ID#:ctrl: 2.8
  AF131806 unknown, expression Ratio ID#:ctrl: 2.6
  AF132495 CGI-133 protein, expression Ratio ID#:ctrl: 3.0
  AF233442 ubiquitin specific protease, expression Ratio ID#:ctrl: 2.9
  AF240467 TLR-7, expression Ratio ID#:ctrl: 13.8
  AJ009771 ariadne_Drosophila_homolog of, expression Ratio ID#:ctrl: 2.3
  AJ012008 dimethylarginine dimethylaminohydrolase 2, expression Ratio ID#:ctrl: 5.1
  AK000102 unknown, expression Ratio ID#:ctrl: 2.8
  AK000358 microfibrillar-associated protein 3, expression Ratio ID#:ctrl: 5.7
  AK001135 Sec23-interacting protein p125, expression Ratio ID#:ctrl: 3.2
  AK001864 unknown, expression Ratio ID#:ctrl: 3.7
  AL035397 unknown, expression Ratio ID#:ctrl: 2.3
  AL050139 unknown, expression Ratio ID#:ctrl: 5.2
  AL133114 DKFZP586P2421 protein, expression Ratio ID#:ctrl: 8.5
  AL133612 unknown, expression Ratio ID#:ctrl: 2.7
  AL133654 unknown, expression Ratio ID#:ctrl: 2.8
  AL137502 unknown, expression Ratio ID#:ctrl: 3.9
  AL137513 unknown, expression Ratio ID#:ctrl: 6.4
  D10495 protein kinase C delta, expression Ratio ID#:ctrl: 12.0
  D30742 calcium/calmodulin-dependent protein kinase IV, expression Ratio ID#:ctrl: 6.2
  D38449 putative G protein coupled receptor, expression Ratio ID#:ctrl: 5.8
  J04599 biglycan, expression Ratio ID#:ctrl: 4.0
  L75847 zinc finger protein, expression Ratio ID#:ctrl: 3.2
  M26665 histatin 3, expression Ratio ID#:ctrl: 7.9
  M28825 CD1A antigen, expression Ratio ID#:ctrl: 4.1
  NM_00696 zinc finger protein, expression Ratio ID#:ctrl: 10.4
  NM_004909 taxol resistance associated gene 3, expression Ratio ID#:ctrl: 3.9
  NM_007199 IL-1R-associated kinase M, expression Ratio ID#:ctrl: 8.7
  U05227 GTP-binding protein, expression Ratio ID#:ctrl: 5.0
  U27330 fucosyltransferase 5, expression Ratio ID#:ctrl: 3.3
  U27655 regulator of G-protein signaling 3, expression Ratio ID#:ctrl: 5.5
  U35246 vacuolar protein sorting 45A, expression Ratio ID#:ctrl: 5.8
  U43328 cartilage linking protein 1, expression Ratio ID#:ctrl: 2.5
  U66669 3-hydroxyisobutyryl-Coenzyme A hydrolase, expression Ratio ID#:ctrl: 10.3
  U70426 regulator of G-protein signaling 16, expression Ratio ID#:ctrl: 3.1
  U75330 neural cell adhesion molecule 2, expression Ratio ID#:ctrl: 2.1
  U80770 unknown, expression Ratio ID#:ctrl: 3.9
  U90908 unknown, expression Ratio ID#:ctrl: 11.8
  U92980 unknown, expression Ratio ID#:ctrl: 4.2
  V00522 MHC class II DR beta 3, expression Ratio ID#:ctrl: 4.8
  X05978 cystatin A, expression Ratio ID#:ctrl: 2.7
  X55740 CD73, expression Ratio ID#:ctrl: 2.1
  X61177 IL-5R alpha, expression Ratio ID#:ctrl: 2.6
  X74837 mannosidase_alpha class 1A, expression Ratio ID#:ctrl: 13.1
  X82153 cathepsin K, expression Ratio ID#:ctrl: 4.2
  X97267 protein tyrosine phosphatase, expression Ratio ID#:ctrl: 4.1
  Z11933 POU domain class 3 TF 2, expression Ratio ID#:ctrl: 8.7

## KMKSFAKMLMLALKKVLKVLTTALTLKAGLPS [ID 43]
A549 epithelial cells; Table 36
  AB023155 KIAA0938 protein, expression Ratio ID#:ctrl: 8.1
  AF034970 docking protein 2, expression Ratio ID#:ctrl: 15.7
  AF039400 chloride channel_calcium activated_family member 1, expression Ratio ID#:ctrl: 5.1
  D10495 protein kinase C delta, expression Ratio ID#:ctrl: 8.7
  D30742 calcium/calmodulin-dependent protein kinase IV, expression Ratio ID#:ctrl: 7.4
  NM_007199 IL-1R-associated kinase M, expression Ratio ID#:ctrl: 8.6
  U43328 cartilage linking protein 1, expression Ratio ID#:ctrl: 6.9

## KNKAFAKMLMKALKKVTTAAKPLTG [ID 44]
A549 epithelial cells; Table 36
  AB023155 KIAA0938 protein, expression Ratio ID#:ctrl: 4.2
  AF034970 docking protein 2, expression Ratio ID#:ctrl: 4.0
  AF039400 chloride channel_calcium activated_family member 1, expression Ratio ID#:ctrl: 18.1
  D10495 protein kinase C delta, expression Ratio ID#:ctrl: 6.8
  D30742 calcium/calmodulin-dependent protein kinase IV, expression Ratio ID#:ctrl: 2.4
  NM_007199 IL-1R-associated kinase M, expression Ratio ID#:ctrl: 16.1
  U43328 cartilage linking protein 1, expression Ratio ID#:ctrl: 7.8

## KTKKFAKMLMMALKKVVSTAKPLAILS [ID 42]
A549 epithelial cells; Table 36
  AB023155 KIAA0938 protein, expression Ratio ID#:ctrl: 4.8
  AF034970 docking protein 2, expression Ratio ID#:ctrl: 8.5
  AF039400 chloride channel_calcium activated_family member 1, expression Ratio ID#:ctrl: 2.9
  D10495 protein kinase C delta, expression Ratio ID#:ctrl: 20.7
  D30742 calcium/calmodulin-dependent protein kinase IV, expression Ratio ID#:ctrl: 28.7
  NM_007199 IL-1R-associated kinase M, expression Ratio ID#:ctrl: 7.8
  U43328 cartilage linking protein 1, expression Ratio ID#:ctrl: 6.2

## KKQMMKRVDVRGISVKRKR [SEQ ID NO: 34]
[1]
  MIC, P. aerug.: >

## LSRIAPAIPWAKL [SEQ ID NO: 10]
[1]; Citobacter rhodensis
  MIC, C. rhod.: >
[1]; Escherichia coli
  MIC, E. coli: >
[1]
  MIC, P. aerug.: >
[1]; Salmonella enteritidis ssp. typhimurium
  MIC, S. typhim.: >

## RAPYWPWAWARPRK [ID 21]
A549 epithelial cells
  ID#:ctrl intensity ratio, AB000887 small inducible cytokine subfamily A: 2.6
  ID#:ctrl intensity ratio, AB011096 KIAA0524 protein: 4.7
  ID#:ctrl intensity ratio, AB014548 KIAA0648 protein: 4.8
  ID#:ctrl intensity ratio, AB018320 Arg/Abl-interacting protein: 3.0
  ID#:ctrl intensity ratio, M80359 MAP/microtubule affinity-regulating kinase 3: 6.1
  ID#:ctrl intensity ratio, NM_014139 sodium channel voltage-gated,: 18.0

## RAAFKWAWAWWRRK [ID 23]
A549 epithelial cells
  ID#:ctrl intensity ratio, AB000887 small inducible cytokine subfamily A: 5.9
  ID#:ctrl intensity ratio, AB011096 KIAA0524 protein: 10.4
  ID#:ctrl intensity ratio, AB014548 KIAA0648 protein: 4.9
  ID#:ctrl intensity ratio, AB018320 Arg/Abl-interacting protein: 5.8
  ID#:ctrl intensity ratio, M80359 MAP/microtubule affinity-regulating kinase 3: 2.1
  ID#:ctrl intensity ratio, NM_014139 sodium channel voltage-gated,: 22.2

## RPAWKYWWPWPWPRRK [SEQ ID NO: 22]
[2]; AB007856 FEM-1-like death receptor binding protein
  Ratio: LPS + ID/Ctrl: 0.96
[2]; AB007896 putative L-type neutral amino acid transporter
  Ratio: LPS + ID/Ctrl: 2.41
[2]; AB010894 BAI1-associated protein
  Ratio: LPS + ID/Ctrl: 1.80
[2]; AB023198 KIAA0981 protein
  Ratio: LPS + ID/Ctrl: 0.92
[2]; AB037722 Unknown
  Ratio: LPS + ID/Ctrl: 2.36
[2]; AC004849 Unknown
  Ratio: LPS + ID/Ctrl: 0.07
[2]; AF095687 brain and nasopharyngeal carcinoma susceptibility protein
  Ratio: LPS + ID/Ctrl: 0.98
[2]; AK000353 cytosolic ovarian carcinoma ag 1
  Ratio: LPS + ID/Ctrl: 2.33
[2]; AL031983 Unknown
  Ratio: LPS + ID/Ctrl: 0.31
[2]; AL137376 Unknown
  Ratio: LPS + ID/Ctrl: 1.35
[2]; D87451 ring finger protein
  Ratio: LPS + ID/Ctrl: 4.28
[2]; J05068 transcobalamin 1
  Ratio: LPS + ID/Ctrl: 0.83
[2]; L04510 ADP-ribosylation factor
  Ratio: LPS + ID/Ctrl: 3.79
[2]; L19185 thioredoxin-dependent peroxide reductase 1
  Ratio: LPS + ID/Ctrl: 0.18
[2]; M54915 pim-1 oncogene
  Ratio: LPS + ID/Ctrl: 1.83
[2]; M95678 phospholipase C beta 2
  Ratio: LPS + ID/Ctrl: 1.33
[2]; NM_001148 ankyrin 2_neuronal
  Ratio: LPS + ID/Ctrl: 0.66
[2]; NM_016382 NK cell activation inducing ligand NAIL
  Ratio: LPS + ID/Ctrl: 0.04
[2]; U52522 partner of RAC1
  Ratio: LPS + ID/Ctrl: 1.38
[2]; U78166 Ric like
  Ratio: LPS + ID/Ctrl: 21.37
[2]; X03066 MHC class II DO beta
  Ratio: LPS + ID/Ctrl: 0.98
[2]; X06614 retinoic acid receptor_alpha
  Ratio: LPS + ID/Ctrl: 1.03
[2]; X07173 inter-alpha inhibitor H2
  Ratio: LPS + ID/Ctrl: 0.51
[2]; X16940 smooth muscle enteric actin γ2
  Ratio: LPS + ID/Ctrl: 2.26
A549 epithelial cells
  ID#:ctrl intensity ratio, AB000887 small inducible cytokine subfamily A: 2.4
  ID#:ctrl intensity ratio, AB011096 KIAA0524 protein: 6.8
  ID#:ctrl intensity ratio, AB014548 KIAA0648 protein: 3.4
  ID#:ctrl intensity ratio, AB018320 Arg/Abl-interacting protein: 3.3
  ID#:ctrl intensity ratio, M80359 MAP/microtubule affinity-regulating kinase 3: 7.6
  ID#:ctrl intensity ratio, NM_014139 sodium channel voltage-gated,: 9.7

## KQKLFAKMLMSALKKKTLVTTPLAGK [ID 45]
A549 epithelial cells; Table 36
  AB023155 KIAA0938 protein, expression Ratio ID#:ctrl: 10.4
  AF034970 docking protein 2, expression Ratio ID#:ctrl: 17.3
  AF039400 chloride channel_calcium activated_family member 1, expression Ratio ID#:ctrl: 5.9
  D10495 protein kinase C delta, expression Ratio ID#:ctrl: 8.1
  D30742 calcium/calmodulin-dependent protein kinase IV, expression Ratio ID#:ctrl: 6.8
  NM_007199 IL-1R-associated kinase M, expression Ratio ID#:ctrl: 2.5
  U43328 cartilage linking protein 1, expression Ratio ID#:ctrl: 3.8

## RRRWKWAWPRRK [ID 24]
A549 epithelial cells
  ID#:ctrl intensity ratio, AB000887 small inducible cytokine subfamily A: 10.3
  ID#:ctrl intensity ratio, AB011096 KIAA0524 protein: 7.5
  ID#:ctrl intensity ratio, AB014548 KIAA0648 protein: 3.9
  ID#:ctrl intensity ratio, AB018320 Arg/Abl-interacting protein: 8.9
  ID#:ctrl intensity ratio, AB033063 unknown: 11.2
  ID#:ctrl intensity ratio, M80359 MAP/microtubule affinity-regulating kinase 3: 3.3
  ID#:ctrl intensity ratio, NM_014139 sodium channel voltage-gated,: 11.2

## RRAWWKAWWARRK [ID 20]
A549 epithelial cells
  ID#:ctrl intensity ratio, AB000887 small inducible cytokine subfamily A: 5.0
  ID#:ctrl intensity ratio, AB011096 KIAA0524 protein: 24.4
  ID#:ctrl intensity ratio, AB014548 KIAA0648 protein: 2.4
  ID#:ctrl intensity ratio, AB018320 Arg/Abl-interacting protein: 7.1
  ID#:ctrl intensity ratio, M80359 MAP/microtubule affinity-regulating kinase 3: 3.1
  ID#:ctrl intensity ratio, NM_014139 sodium channel voltage-gated,: 25.2

Source: US20070134261A1, “Effectors of innate immunity” (priority 2001, published 2007)
